Measurements taken from patent US20040102382A1, “Targeting peptides” (priority 2002, published 2004).

Tested on: Tumor
Experiment: Phage display tumor selection (Table 2)

Sequence | Frequency (number of times the sequence was found/number of sequences done)
DAQQLYLSNWRS | 3/50
TQSPLNYRPALL | 6/50
SFPTHIDHHVSP | 4/50
THRPSLPDSSRA | 5/50
